# Measured values from patent US10570213B2, “Methods of treating cancers using PD-1 axis binding antagonists and taxanes” (Genentech, Inc., priority 2013, dated 2020).
# At least one structure is not confirmed: it was looked up by name or label, or the drawing left a doubt.
# Experiments:
# MC38 colorectal tumor = assay: syngeneic MC38 colorectal tumor model in C57BL/6 mice; format: in vivo; details: FIGS. 2A/2B; single dose dexamethasone 4 mg/kg IV 12 hours before anti-PD-L1 (clone 25A1.mIgG2a.DANA) 10 mg/kg IP 3 times a week for 3 weeks
# OTI CD8+ T cells = assay: OTI adoptive T cell transfer and vaccination model; format: in vivo, C57BL/6 mice; details: FIG. 3; single dose dexamethasone 4 mg/kg IV with anti-DEC205-ovalbumin vaccination; two days after vaccination
smiles,measurement,setting,value
C[C@@H]1C[C@H]2[C@@H]3CCC4=CC(=O)C=C[C@]4(C)[C@@]3(F)[C@@H](O)C[C@]2(C)[C@@]1(O)C(=O)CO [dexamethasone],effect on efficacy of single-agent anti-PD-L1 treatment,MC38 colorectal tumor,abrogates
same,antigen-specific T cell responses (total OTI CD8+ cells in spleen),OTI CD8+ T cells,inhibits
